Results on one molecule are retold here after article PMC5539093, “Functional Characterization of Four Putative δ^1-Pyrroline-5-Carboxylate Reductases from Bacillus subtilis” (Frontiers in Microbiology, 2017).

This experiment has as its target ComER, putative δ1-pyrroline-5-carboxylate (P5C) reductase from Bacillus subtilis (Bacillus subtilis strain 168) (UniProt P39696). The experiment in a line: small-angle X-ray scattering (SAXS) in line with SEC; each native protein at 5 mg mL^-1 loaded onto a Superdex 200 column in 20 mM HEPES pH 8.0, 150 mM NaCl, 2 mM TCEP, routed into the flow cell; oligomeric state from mass, Rg, Dmax and ab initio envelope; both purified.

No constants are given. Whether binding was seen depends on the method and setting.

B1: ComER, putative δ1-pyrroline-5-carboxylate (P5C) reductase from Bacillus subtilis (enzyme, UniProt P39696 1-273)
chain: MKIGFIGTGNMGTILIESFIESKAADPSNMTITNRTIEKALHIKNRYNSINVTESLEKLVSENEMIFICVKPLDIYPLLARALPYLRKDHILISITSPVQTEQLEQYVPCQVARVIPSITNRALAGVSLVTFGTSCGESAKAKINELMQHISHPLQIESDITRVASDIVSCGPAFMSYLIQRFIDAAVSETSVSKQDAILMCKEMLVGMGKLLETELYTLPALQEKVCVKGGVTGEGIKALESGVQDMFHRVFQNTHMKYEEDISAVKKQFHV
Consider B1, for which the binding result is “no binding (tested: 5 mg mL^-1 loaded onto the column)”.
